Measured values from article PMC4008428.
Results are given in words; binding and its absence hold for the method and conditions named. Some entries that bind do so weakly or less than the wild type.

Chains of the proteins cited; added tags and fusions are not shown. Residues count along the entry.
UniProt P35225, residues 25-146: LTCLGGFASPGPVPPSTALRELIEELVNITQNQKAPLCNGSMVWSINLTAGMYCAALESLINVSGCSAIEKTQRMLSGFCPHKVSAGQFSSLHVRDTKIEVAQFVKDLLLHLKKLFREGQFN

Tests used:
[1] = target: T1, Full length, human IL13Rα2 expressed on D283 cells (D283-IL13Rα2) (human) (UniProt Q14627); test: flow cytometry on cells; biotinylated IL-13 incubated with cells, then streptavidin-PE; only the binder purified
T1 sequence: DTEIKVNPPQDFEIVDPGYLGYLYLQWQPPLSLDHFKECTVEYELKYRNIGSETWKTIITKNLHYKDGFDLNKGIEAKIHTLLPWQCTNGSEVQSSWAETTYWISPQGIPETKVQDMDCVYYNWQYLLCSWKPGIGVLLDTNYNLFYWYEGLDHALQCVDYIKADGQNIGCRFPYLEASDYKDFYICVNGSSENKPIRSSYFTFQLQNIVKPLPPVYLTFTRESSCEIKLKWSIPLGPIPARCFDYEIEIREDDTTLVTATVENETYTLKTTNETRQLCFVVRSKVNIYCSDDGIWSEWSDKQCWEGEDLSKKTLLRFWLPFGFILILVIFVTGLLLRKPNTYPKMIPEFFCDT

[2] = target: T2, VCAM-1, cytokine-induced on glioma and THP-1 cells (the cytokine-induced B-D13 target antigen) (human (endogenous in THP-1, PBT008, PBT003)) (UniProt P19320); test: as above
T2 sequence: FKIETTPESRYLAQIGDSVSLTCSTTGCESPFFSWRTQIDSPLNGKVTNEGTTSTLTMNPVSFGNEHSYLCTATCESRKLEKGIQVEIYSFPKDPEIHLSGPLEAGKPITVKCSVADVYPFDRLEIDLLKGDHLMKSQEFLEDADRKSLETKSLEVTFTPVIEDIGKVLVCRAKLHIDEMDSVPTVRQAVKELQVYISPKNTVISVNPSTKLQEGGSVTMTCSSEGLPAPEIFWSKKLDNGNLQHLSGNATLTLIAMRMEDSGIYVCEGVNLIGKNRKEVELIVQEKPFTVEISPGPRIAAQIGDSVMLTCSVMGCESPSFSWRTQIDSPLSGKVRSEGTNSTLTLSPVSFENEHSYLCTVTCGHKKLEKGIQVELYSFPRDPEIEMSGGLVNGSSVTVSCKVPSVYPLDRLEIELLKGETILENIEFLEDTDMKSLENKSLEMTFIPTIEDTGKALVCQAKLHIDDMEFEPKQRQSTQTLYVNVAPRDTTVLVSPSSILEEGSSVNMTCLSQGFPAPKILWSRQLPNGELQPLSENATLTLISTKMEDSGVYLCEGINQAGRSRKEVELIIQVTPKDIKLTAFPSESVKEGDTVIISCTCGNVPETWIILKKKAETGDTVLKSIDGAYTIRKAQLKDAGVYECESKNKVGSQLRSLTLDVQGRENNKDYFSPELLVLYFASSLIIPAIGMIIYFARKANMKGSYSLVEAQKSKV

[3] = target: T3, IL13Rα2 constitutively expressed on U251T glioma cells (human (endogenous in U251T)) (UniProt Q14627); test: flow cytometry on cells; biotinylated IL-13 / streptavidin-PE on U251T cells, in the presence and absence of 10-fold molar excess of recombinant human IL-4 or IL-13 (pre-incubation); only the binder purified
T3 sequence: T1 sequence

“Biotinylated human recombinant IL-13 (from UniProt P35225 25-146) (ligand)” was tested, and the binding [1] was “binds”, the binding [2] was “no binding” and the binding [3] was “binds”.

In the case of “Unconjugated recombinant human IL-13 (from UniProt P35225 25-146) (ligand)”, the binding [3] is reported as “binds”.
